Consider 17 compounds from PubChem BioAssay AID2685 (National Center for Advancing Translational Sciences (NCATS), 2010).

The other results are listed elsewhere or left out. Shown are side measurements of this screen, not its main read-out; they come without a call. The list favours compounds with an active or inconclusive main result. Potencies come from curve fits of mixed quality, noted in brackets.

A short description of the experiment: qHTS Assay for Lipid Storage Modulators in Drosophila S3 Cells.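 On cell number change: cells counted by Cell Tracker Red CMTPX staining in the red channel.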 As to conditions: BODIPY lipid droplet fluorescence, 18-24 h; for cell number change: measured here: cell count max response, cells fed with added oleic acid. A digest of the protocol: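 Laser-scanning cytometry quantifies lipid droplet accumulation (500–530 nm total intensity; droplet/cell object ratio) in oleic acid-fed (400 uM added) Drosophila S3 cells treated with a concentration series. 20 uM Triacsin C defined 100% inhibition.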
For orientation: Quantitative high-throughput screening tests each substance at several concentrations.

Setting [1] is: measured here: lipid fluorescence (Fed channel) AC50, cells fed with added oleic acid.
The mark [2] stands for this setting: measured here: cell number channel AC50, cells fed with added oleic acid.

In general, AC50 refers to the concentration giving half of the maximal activity seen. Read a low AC50 as activity at low concentration. On to `O=C(Cn1nc(-c2ccccc2)ccc1=O)Nc1ccc(-n2cnnn2)cc1`, for which the cell number change amounted to 0.49%. For the same compound, the AC50 under setting [1] was 0.0291 µM [falling, full curve, poor fit].
`Cc1ccc(C)c(NC(=O)CSc2nnc(CCNC(=O)OC(C)(C)C)o2)c1`: the cell number change was -7.88%. Besides, the AC50 under setting [1] was 14.6 µM [rising, partial curve].
Regarding `O=C(Nc1ccc(Cl)cc1)C1=Cc2ccccc2OC1`, the cell number change is 65.3%. Besides, the AC50 under setting [2] was 29.1 µM [rising, single point]. In addition, the AC50 under setting [1] is 23.1 µM [falling, single point].
With `O=C(NCCCN=C1NS(=O)(=O)c2ccccc21)c1ccc(S(=O)(=O)N2CCCCC2)cc1`, under setting [1], the concentration at half-maximal activity (AC50) is 18.4 µM [falling, single point].
Consider `CS(=O)(=O)N(CC(=O)N1CCN(Cc2ccccc2)CC1)c1ccccc1F`, for which the cell number change stood at 7.72%. Besides, the AC50 under setting [1] is 0.92 µM [falling, full curve, poor fit].
For the compound `Cc1ccccc1N1CCN(C2CCCN(C(=O)c3cnsn3)C2)CC1` (stereo not drawn), the cell number change was 3.67%. For the same compound, under setting [1], the AC50 was 0.82 µM [rising, single point].
For `CC(C)C(=O)N1CCC(CN=Cc2c(O)n(C3CCCCC3)c(=O)n(C3CCCCC3)c2=O)CC1`, the cell number change is -27.2%. Moreover, under setting [1], the AC50 was 29.1 µM [falling, single point].
Turning to `CN(C)c1nc(OCCOC(=O)COc2ccc(Cl)cc2Cl)nc(N(C)C)n1`, the cell number change was 7.94%. Further, the AC50 under setting [1] is 20.6 µM [rising, single point].
Turning to `Cc1ccc(C(=O)NCCCCNC(=O)c2ccc(C)o2)o1`, the cell number change turned out to be 27.2%. In addition, under setting [1], the AC50 is 18.4 µM [rising, single point].
For `COCCn1c(=O)[nH]c2cc(C(=O)N3CCN(c4cccc(C(F)(F)F)c4)CC3)ccc2c1=O`, the cell number change came out at 35.5%. Also, under setting [2], the AC50 is 3.66 µM [rising, partial curve, poor fit].
Take `Cc1ccc(S(=O)(=O)N2CCOCC2)cc1NC(=O)COc1cccc(Oc2ccccc2)c1`: the cell number change was found to be 6.78%. The AC50 under setting [1] was 3.66 µM [rising, single point].
For the compound `CC(C)(C)c1ccc(C(=O)NC(=S)NNC(=O)c2cccs2)cc1`, the cell number change was -13.2%.
On to `CC(OC(=O)CCCN=C1NS(=O)(=O)c2ccccc21)C(=O)Nc1ccc(F)c(F)c1F` (stereo not drawn), for which the cell number change turned out to be 25%. Also, under setting [2], the AC50 is 0.00461 µM [rising, full curve, poor fit].
On to `CCOc1cc(C2NC(=O)NC2=O)ccc1O` (stereo not drawn), for which the cell number change came to 5.46%. In addition, the AC50 under setting [1] was 0.206 µM [rising, single point].
Take `Cc1cc(C(C)(C)C)ccc1OCCN(C)C`: the cell number change was 2.66%. Moreover, the AC50 under setting [1] was 0.092 µM [falling, full curve].
Consider `COc1ccc(NC(=O)c2ccccn2)cc1OC`, for which the cell number change is -10.9%.
As to `COc1ccc(N2C(=O)CC(c3ccccc3)CC2=O)cc1`, the cell number change was determined as 14.3%. Moreover, the AC50 under setting [2] was 0.092 µM [falling, full curve]. Besides, the AC50 under setting [1] is 0.0651 µM [falling, full curve, poor fit].
